Results as given in the supplement of paper PMC10849652.
The list shows a part of the results.

Protein sequences, listed by entry. Tags and fused reporters are not part of them. Lines headed by an entry give the natural chain unless they say otherwise; changes in a name come on top.
UniProt P07099: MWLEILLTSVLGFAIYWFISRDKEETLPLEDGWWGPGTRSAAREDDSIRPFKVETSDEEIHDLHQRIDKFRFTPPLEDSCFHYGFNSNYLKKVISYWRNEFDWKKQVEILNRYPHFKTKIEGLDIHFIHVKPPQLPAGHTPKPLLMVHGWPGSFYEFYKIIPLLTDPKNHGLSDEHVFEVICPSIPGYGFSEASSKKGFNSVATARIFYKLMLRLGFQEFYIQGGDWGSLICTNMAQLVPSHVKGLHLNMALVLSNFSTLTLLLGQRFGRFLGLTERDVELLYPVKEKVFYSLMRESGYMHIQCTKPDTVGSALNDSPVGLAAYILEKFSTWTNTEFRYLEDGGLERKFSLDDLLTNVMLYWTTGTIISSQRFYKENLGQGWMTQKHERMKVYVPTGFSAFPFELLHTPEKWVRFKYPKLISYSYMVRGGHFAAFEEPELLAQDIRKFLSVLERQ
UniProt Q5RKV6, whole entry, looked up: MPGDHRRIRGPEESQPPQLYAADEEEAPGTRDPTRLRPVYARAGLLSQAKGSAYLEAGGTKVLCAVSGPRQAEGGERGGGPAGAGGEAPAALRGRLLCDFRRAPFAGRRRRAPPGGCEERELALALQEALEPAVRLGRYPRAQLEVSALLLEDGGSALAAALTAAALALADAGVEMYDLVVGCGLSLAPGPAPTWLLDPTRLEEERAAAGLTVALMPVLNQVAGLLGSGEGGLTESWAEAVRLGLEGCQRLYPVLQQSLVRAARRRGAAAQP
UniProt Q15024, whole entry, looked up: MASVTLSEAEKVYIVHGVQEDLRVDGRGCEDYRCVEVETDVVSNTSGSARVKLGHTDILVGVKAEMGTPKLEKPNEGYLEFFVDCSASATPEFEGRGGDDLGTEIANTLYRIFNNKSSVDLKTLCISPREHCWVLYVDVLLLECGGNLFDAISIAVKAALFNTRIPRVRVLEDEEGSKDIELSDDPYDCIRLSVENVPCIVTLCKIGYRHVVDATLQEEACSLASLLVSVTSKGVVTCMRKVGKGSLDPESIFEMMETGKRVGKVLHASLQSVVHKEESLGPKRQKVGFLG
UniProt Q93063: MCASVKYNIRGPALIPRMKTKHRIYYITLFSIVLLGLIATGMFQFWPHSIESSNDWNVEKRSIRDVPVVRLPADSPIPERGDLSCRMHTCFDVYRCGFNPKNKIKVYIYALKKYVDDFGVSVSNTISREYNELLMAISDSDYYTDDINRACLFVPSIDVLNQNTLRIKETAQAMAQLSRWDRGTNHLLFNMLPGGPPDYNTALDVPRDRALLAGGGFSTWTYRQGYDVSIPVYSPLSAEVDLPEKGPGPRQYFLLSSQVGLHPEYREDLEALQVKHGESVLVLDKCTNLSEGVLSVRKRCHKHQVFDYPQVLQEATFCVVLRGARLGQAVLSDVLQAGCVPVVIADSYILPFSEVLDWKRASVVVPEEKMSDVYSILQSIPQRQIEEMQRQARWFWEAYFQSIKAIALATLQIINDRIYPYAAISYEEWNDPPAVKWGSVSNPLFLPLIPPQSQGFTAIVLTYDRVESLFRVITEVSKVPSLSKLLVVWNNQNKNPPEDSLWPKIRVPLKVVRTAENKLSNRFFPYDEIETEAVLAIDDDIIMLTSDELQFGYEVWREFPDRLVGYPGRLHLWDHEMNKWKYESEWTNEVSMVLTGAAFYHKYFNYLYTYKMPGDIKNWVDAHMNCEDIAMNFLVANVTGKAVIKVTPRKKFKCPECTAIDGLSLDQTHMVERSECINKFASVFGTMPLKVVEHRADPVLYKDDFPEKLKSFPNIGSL
UniProt Q9Y2J2, whole entry, looked up: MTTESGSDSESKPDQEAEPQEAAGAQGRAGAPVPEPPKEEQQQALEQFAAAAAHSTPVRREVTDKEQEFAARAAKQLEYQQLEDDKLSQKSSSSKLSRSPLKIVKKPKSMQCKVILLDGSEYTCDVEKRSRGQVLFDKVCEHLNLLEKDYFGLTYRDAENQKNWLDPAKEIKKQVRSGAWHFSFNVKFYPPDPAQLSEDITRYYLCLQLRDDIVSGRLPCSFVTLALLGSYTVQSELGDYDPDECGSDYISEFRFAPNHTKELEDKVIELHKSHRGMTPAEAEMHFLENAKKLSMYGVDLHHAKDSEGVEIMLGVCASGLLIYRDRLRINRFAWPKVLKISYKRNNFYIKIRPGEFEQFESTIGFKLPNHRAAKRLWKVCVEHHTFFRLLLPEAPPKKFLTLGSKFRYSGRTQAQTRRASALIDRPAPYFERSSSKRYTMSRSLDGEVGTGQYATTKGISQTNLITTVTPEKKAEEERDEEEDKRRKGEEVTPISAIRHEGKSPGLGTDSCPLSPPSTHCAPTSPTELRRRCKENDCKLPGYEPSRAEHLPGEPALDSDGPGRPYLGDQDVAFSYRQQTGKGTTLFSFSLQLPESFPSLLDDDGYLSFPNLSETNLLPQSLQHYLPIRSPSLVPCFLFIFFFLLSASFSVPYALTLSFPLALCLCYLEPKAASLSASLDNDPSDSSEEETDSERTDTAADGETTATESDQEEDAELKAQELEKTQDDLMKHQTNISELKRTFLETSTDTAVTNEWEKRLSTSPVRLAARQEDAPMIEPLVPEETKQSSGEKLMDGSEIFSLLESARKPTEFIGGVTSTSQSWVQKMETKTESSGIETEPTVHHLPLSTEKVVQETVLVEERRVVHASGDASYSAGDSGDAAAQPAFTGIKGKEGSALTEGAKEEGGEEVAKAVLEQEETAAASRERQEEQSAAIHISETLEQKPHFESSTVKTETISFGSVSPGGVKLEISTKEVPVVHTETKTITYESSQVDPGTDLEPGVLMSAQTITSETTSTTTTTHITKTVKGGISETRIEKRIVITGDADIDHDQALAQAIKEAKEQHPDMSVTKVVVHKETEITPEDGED
UniProt Q16134: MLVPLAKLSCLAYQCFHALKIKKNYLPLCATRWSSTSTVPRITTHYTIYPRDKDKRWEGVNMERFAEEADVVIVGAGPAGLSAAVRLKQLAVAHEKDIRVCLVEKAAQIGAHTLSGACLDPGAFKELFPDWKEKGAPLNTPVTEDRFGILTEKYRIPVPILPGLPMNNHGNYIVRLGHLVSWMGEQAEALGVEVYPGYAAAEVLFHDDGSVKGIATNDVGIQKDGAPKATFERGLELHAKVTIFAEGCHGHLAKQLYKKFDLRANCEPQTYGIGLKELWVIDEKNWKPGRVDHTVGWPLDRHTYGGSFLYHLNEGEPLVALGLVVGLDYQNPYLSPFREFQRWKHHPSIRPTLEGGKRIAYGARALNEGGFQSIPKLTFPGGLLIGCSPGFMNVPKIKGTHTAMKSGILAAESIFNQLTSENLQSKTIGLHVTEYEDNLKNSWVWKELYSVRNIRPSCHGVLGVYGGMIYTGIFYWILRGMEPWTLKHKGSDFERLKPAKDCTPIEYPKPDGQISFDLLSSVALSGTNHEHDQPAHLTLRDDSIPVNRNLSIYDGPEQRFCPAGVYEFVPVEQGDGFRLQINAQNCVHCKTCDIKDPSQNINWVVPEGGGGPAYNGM
UniProt Q9Y624, whole entry, looked up, stated change not applied: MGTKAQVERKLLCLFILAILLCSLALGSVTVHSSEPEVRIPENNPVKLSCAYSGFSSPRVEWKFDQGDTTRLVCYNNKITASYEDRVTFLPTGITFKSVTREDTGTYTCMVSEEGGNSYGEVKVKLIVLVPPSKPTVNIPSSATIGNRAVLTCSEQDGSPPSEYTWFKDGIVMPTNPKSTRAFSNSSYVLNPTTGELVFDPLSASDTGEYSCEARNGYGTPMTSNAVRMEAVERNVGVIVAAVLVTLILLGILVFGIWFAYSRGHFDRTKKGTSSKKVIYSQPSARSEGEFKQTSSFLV
UniProt Q7Z2K6: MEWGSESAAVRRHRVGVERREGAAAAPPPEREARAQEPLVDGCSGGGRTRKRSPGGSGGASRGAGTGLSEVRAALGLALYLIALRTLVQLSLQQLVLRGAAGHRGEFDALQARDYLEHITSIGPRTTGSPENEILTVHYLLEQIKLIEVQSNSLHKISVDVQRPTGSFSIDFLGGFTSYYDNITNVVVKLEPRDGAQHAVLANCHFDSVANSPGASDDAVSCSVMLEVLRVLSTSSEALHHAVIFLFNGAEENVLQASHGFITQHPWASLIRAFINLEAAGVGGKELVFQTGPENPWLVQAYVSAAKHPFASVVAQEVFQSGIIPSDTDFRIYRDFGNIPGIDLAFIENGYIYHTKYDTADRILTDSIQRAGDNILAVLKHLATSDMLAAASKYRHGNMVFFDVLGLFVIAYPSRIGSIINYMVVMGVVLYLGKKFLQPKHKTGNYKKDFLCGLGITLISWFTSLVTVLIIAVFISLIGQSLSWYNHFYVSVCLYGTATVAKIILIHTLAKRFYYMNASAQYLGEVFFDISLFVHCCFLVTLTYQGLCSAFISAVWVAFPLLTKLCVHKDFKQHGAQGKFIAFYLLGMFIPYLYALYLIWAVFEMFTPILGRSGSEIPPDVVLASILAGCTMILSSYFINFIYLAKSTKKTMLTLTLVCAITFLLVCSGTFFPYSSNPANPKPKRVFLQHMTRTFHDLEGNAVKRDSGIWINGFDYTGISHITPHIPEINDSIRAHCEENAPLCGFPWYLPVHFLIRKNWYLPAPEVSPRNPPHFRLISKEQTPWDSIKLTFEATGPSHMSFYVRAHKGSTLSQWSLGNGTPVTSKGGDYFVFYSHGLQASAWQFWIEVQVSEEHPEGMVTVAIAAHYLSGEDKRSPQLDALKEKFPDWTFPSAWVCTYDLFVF
UniProt Q6P587: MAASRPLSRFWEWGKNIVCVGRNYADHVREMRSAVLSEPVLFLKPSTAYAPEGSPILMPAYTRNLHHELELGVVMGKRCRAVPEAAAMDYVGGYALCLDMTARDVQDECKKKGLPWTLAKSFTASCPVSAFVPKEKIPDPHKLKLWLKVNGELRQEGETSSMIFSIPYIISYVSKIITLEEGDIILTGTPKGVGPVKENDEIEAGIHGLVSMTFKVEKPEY
UniProt Q96A26: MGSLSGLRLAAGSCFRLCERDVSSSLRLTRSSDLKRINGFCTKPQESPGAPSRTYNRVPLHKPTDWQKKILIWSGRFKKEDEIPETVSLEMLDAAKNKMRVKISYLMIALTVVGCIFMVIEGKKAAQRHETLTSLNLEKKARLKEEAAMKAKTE
UniProt Q9Y282: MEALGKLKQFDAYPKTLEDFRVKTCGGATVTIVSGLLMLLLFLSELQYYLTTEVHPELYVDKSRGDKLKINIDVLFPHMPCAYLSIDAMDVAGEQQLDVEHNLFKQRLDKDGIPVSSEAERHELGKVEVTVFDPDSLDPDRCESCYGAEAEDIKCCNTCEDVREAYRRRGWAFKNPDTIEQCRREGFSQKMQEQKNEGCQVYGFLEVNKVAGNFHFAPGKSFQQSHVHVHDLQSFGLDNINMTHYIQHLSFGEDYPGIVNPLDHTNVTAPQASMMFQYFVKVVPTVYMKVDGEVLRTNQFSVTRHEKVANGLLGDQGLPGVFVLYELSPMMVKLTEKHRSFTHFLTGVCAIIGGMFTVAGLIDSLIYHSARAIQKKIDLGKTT
UniProt Q969X5: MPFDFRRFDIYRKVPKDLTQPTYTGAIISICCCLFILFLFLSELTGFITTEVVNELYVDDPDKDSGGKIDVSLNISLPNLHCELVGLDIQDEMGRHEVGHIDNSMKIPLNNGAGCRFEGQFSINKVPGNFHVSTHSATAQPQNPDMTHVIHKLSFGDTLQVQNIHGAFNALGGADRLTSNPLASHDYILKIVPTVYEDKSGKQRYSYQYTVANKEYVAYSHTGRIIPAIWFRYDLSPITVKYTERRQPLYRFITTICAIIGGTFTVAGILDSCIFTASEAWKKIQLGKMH
UniProt Q7L775: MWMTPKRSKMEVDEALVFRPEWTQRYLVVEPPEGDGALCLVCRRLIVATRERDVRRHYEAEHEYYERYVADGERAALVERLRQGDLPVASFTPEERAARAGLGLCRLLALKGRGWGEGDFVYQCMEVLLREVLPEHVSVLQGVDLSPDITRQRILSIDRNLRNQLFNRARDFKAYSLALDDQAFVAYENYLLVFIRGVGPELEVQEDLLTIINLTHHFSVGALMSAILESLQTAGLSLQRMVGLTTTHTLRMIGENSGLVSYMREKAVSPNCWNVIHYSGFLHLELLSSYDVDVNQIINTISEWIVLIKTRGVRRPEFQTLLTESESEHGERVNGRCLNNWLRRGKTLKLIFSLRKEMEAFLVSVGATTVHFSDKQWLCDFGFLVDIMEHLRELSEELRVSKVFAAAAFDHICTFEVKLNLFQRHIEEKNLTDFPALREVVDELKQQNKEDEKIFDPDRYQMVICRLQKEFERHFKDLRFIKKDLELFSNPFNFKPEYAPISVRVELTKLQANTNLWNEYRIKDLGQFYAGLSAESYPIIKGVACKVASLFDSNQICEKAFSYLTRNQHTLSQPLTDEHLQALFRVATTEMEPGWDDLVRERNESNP

How the values were obtained:
Assay in all cases: log2 fold change, soluble protein after heating vs DMSO (PISA); higher = thermal stabilisation; K562 cells, 10 uM, 30 min; active = over 0.2 and 3.5 SD of the protein, either way, in both replicates (recomputed)
[1] = compound: CC[C@@H]1C(=O)N(C)c2cnc(Nc3ccc(C(=O)NC4CCN(C)CC4)cc3OC)nc2N1C1CCCC1
Outline: (§1)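 Quantification of soluble protein used TMTpro 16plex LC-MS/MS, with channel sums equalised. Samples were the supernatant after 21,000xg for 90 min of pooled aliquots from K562 cells (2×10^6 cells/mL) treated with 10 μM compound for 30 min, heated for 3 min over 48°C-58°C, and extracted in PBS with 0.5% NP-40 at 4°C. Values, from duplicates, describe thermal stability against control samples on a log2 fold-change scale.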

volasertib = compound: CC[C@@H]1C(=O)N(C)c2cnc(Nc3ccc(C(=O)N[C@H]4CC[C@H](N5CCN(CC6CC6)CC5)CC4)cc3OC)nc2N1C(C)C [volasertib]
Outline: as §1

[2] = compound: CC[C@H](C)N1C=C(C2=C(C=C(C=C21)C3=CN=C(C=C3)N4CCNCC4)C(=O)NCC5=C(C=C(NC5=O)C)C)C
Outline: as §1

epoxomicin = compound: CC[C@H](C)[C@@H](C(=O)N[C@@H]([C@@H](C)O)C(=O)N[C@@H](CC(C)C)C(=O)[C@]1(CO1)C)NC(=O)[C@H]([C@@H](C)CC)N(C)C(=O)C [epoxomicin]
Outline: as §1

[3] = compound: CCn1c(C(=O)N(C2CC2)C2CC2)cc2c3c(ncn3C)c(Nc3cc(C)n(C)n3)nc21
Outline: as §1

[4] = compound: CCn1cc(-c2ccnc3[nH]c(-c4cccc(CN(C)C)c4)cc23)c(-c2ccc(NC(=O)N(C)C)cc2)n1
Outline: as §1

[5] = compound: CN(C)CC(=O)Nc1ccc2[nH]c(=O)c3ccccc3c2c1
Outline: as §1

rosiglitazone = compound: CN(CCOC1=CC=C(C=C1)C[C@H]2C(=O)NC(=O)S2)C3=CC=CC=N3 (racemic) [rosiglitazone]
Outline: as §1

[6] = compound: CN1C2=C(C3=C1C(=O)N(N=C3)CC4=CC(=CC=C4)N)SC(=C2)S(=O)C
Outline: as §1

[7] = compound: CN1CCC(CNc2ccc3ncc(-c4cccc(OC(F)(F)F)c4)n3n2)CC1
Outline: as §1

saracatinib = compound: CN1CCN(CCOc2cc(OC3CCOCC3)c3c(Nc4c(Cl)ccc5c4OCO5)ncnc3c2)CC1 [saracatinib]
Outline: as §1

sotrastaurin = compound: CN1CCN(c2nc(C3=C(c4c[nH]c5ccccc45)C(=O)NC3=O)c3ccccc3n2)CC1 [sotrastaurin]
Outline: as §1

alvocidib = compound: CN1CC[C@H](c2c(O)cc(O)c3c(=O)cc(-c4ccccc4Cl)oc23)[C@H](O)C1 [alvocidib]
Outline: as §1

Tubastatin A = compound: CN1CCc2c(c3ccccc3n2Cc2ccc(C(=O)NO)cc2)C1 [Tubastatin A]
Outline: as §1

[8] = compound: CNC(=O)C1=CC=CC=C1NC2=NC(=NC=C2Cl)NC3=C(C=C(C=C3)N4CCOCC4)OC
Outline: as §1

defactinib = compound: CNC(=O)c1ccc(Nc2ncc(C(F)(F)F)c(NCc3nccnc3N(C)S(C)(=O)=O)n2)cc1 [defactinib]
Outline: as §1

rucaparib = compound: CNCc1ccc(-c2[nH]c3cc(F)cc4c3c2CCNC4=O)cc1 [rucaparib]
Outline: as §1

[9] = compound: CNc1nc(-c2ccc3c(N)n[nH]c3c2)cc(N2C[C@@H](C(=O)NC3CCCCC3)CC[C@H]2C)n1
Outline: as §1

encorafenib = compound: COC(=O)N[C@@H](C)CNc1nccc(-c2cn(C(C)C)nc2-c2cc(Cl)cc(NS(C)(=O)=O)c2F)n1 [encorafenib]
Outline: as §1

[10] = compound: COC(=O)[C@H](CCSC)NC(=O)C1=C(C=C(C=C1)NC[C@H](CS)N)C2=CC=CC=C2
Outline: as §1

Measured: log2 fold change

EPHX1 (UniProt P07099)
inactive: [1] 0.021 | volasertib 0.121 | [2] -0.03 | epoxomicin -0.006 | [3] -0.018 | [4] 0.053 | [5] -0.056 | rosiglitazone -0.007 | [6] 0.076 | [7] 0.113 | saracatinib 0.113 | sotrastaurin 0.05 | alvocidib 0.006 | Tubastatin A -0.029 | [8] 0.023 | defactinib -0.019 | rucaparib -0.016 | [9] -0.067 | encorafenib -0.023 | [10] 0.048

EXOSC6 (UniProt Q5RKV6)
inactive: [1] 0.023 | volasertib 0.061 | [2] -0.058 | epoxomicin 0.023 | [3] 0.016 | [4] 0.024 | [5] 0.008 | rosiglitazone -0.031 | [6] -0.071 | [7] 0.041 | saracatinib 0.052 | sotrastaurin 0.035 | alvocidib 0.003 | Tubastatin A -0.028 | [8] 0.018 | defactinib 0.01 | rucaparib 0.024 | [9] -0.025 | encorafenib -0.04 | [10] 0.01

EXOSC7 (UniProt Q15024)
inactive: [1] 0.069 | volasertib -0.03 | [2] -0.058 | epoxomicin -0.067 | [3] 0.023 | [4] 0.023 | [5] -0.027 | rosiglitazone -0.026 | [6] -0.044 | [7] 0.008 | saracatinib -0.006 | sotrastaurin 0.043 | alvocidib 0.054 | Tubastatin A -0.055 | [8] -0.039 | defactinib 0.012 | rucaparib 0.007 | [9] -0.058 | encorafenib -0.006 | [10] 0.017

EXT2 isoform 3 (UniProt Q93063)
inactive: [1] 0.041 | volasertib 0.005 | [2] -0.046 | epoxomicin -0.015 | [3] 0.021 | [4] 0.026 | [5] -0.016 | rosiglitazone 0.002 | [6] 0.026 | [7] 0.069 | saracatinib -0.069 | sotrastaurin -0.016 | alvocidib 0.042 | Tubastatin A 0.111 | [8] 0.047 | defactinib 0.025 | rucaparib 0.057 | [9] -0.02 | encorafenib 0.064 | [10] -0.086

EPB41L3 (UniProt Q9Y2J2)
inactive: [1] 0.034 | volasertib -0.039 | [2] 0.031 | epoxomicin 0.02 | [3] 0.029 | [4] -0.045 | [5] -0.043 | rosiglitazone 0.001 | [6] -0.088 | [7] -0.086 | saracatinib -0.038 | sotrastaurin -0.012 | alvocidib -0.001 | Tubastatin A 0.003 | [8] 0.004 | defactinib -0.033 | rucaparib -0.001 | [9] 0.027 | encorafenib -0.027 | [10] 0

Reprinted at random: two records from the list, in no set order.
EPB41L3 (UniProt Q9Y2J2)
inactive: [1] 0.034 | volasertib -0.039 | [2] 0.031 | epoxomicin 0.02 | [3] 0.029 | [4] -0.045 | [5] -0.043 | rosiglitazone 0.001 | [6] -0.088 | [7] -0.086 | saracatinib -0.038 | sotrastaurin -0.012 | alvocidib -0.001 | Tubastatin A 0.003 | [8] 0.004 | defactinib -0.033 | rucaparib -0.001 | [9] 0.027 | encorafenib -0.027 | [10] 0

EXOSC7 (UniProt Q15024)
inactive: [1] 0.069 | volasertib -0.03 | [2] -0.058 | epoxomicin -0.067 | [3] 0.023 | [4] 0.023 | [5] -0.027 | rosiglitazone -0.026 | [6] -0.044 | [7] 0.008 | saracatinib -0.006 | sotrastaurin 0.043 | alvocidib 0.054 | Tubastatin A -0.055 | [8] -0.039 | defactinib 0.012 | rucaparib 0.007 | [9] -0.058 | encorafenib -0.006 | [10] 0.017

Remaining list, next part

ETFDH (UniProt Q16134)
inactive: [1] 0.001 | volasertib 0.015 | [2] -0.009 | epoxomicin 0.008 | [3] -0.009 | [4] -0.035 | [5] -0.01 | rosiglitazone 0.022 | [6] -0.053 | [7] -0.023 | saracatinib 0.014 | sotrastaurin -0.008 | alvocidib -0.028 | Tubastatin A -0.006 | [8] 0.017 | defactinib -0.012 | rucaparib -0.018 | [9] 0.127 | encorafenib 0 | [10] 0.006

F11R (UniProt Q9Y624)
inactive: [1] 0.128 | volasertib 0.062 | [2] -0.031 | epoxomicin -0.017 | [3] 0.03 | [4] -0.022 | [5] -0.043 | rosiglitazone -0.009 | [6] -0.069 | [7] 0.094 | saracatinib 0.021 | sotrastaurin 0.06 | alvocidib -0.025 | Tubastatin A -0.021 | [8] 0.008 | defactinib -0.057 | rucaparib 0.021 | [9] 0.014 | encorafenib 0 | [10] 0.031

ERMP1 (UniProt Q7Z2K6)
inactive: [1] 0.03 | volasertib 0.015 | [2] -0.069 | epoxomicin -0.022 | [3] 0 | [4] 0.012 | [5] 0.007 | rosiglitazone 0.008 | [6] -0.026 | [7] 0.019 | saracatinib 0.046 | sotrastaurin 0.053 | alvocidib 0.01 | Tubastatin A -0.027 | [8] 0.001 | defactinib -0.051 | rucaparib -0.004 | [9] -0.04 | encorafenib -0.016 | [10] 0.039

FAHD1 (UniProt Q6P587)
inactive: [1] 0.019 | volasertib 0.039 | [2] -0.023 | epoxomicin -0.004 | [3] 0.051 | [4] 0.012 | [5] -0.025 | rosiglitazone 0.009 | [6] -0.068 | [7] 0.02 | saracatinib 0.051 | sotrastaurin 0.07 | alvocidib 0.039 | Tubastatin A 0.038 | [8] 0.043 | defactinib 0 | rucaparib -0.022 | [9] -0.005 | encorafenib -0.03 | [10] 0.02

ERAP1 isoform 2 (UniProt Q9NZ08)
inactive: [1] 0.012 | volasertib -0.031 | [2] 0.02 | epoxomicin -0.015 | [3] 0.026 | [4] 0.014 | [5] -0.034 | rosiglitazone 0.002 | [6] 0.039 | [7] 0.118 | saracatinib -0.054 | sotrastaurin -0.026 | alvocidib 0.016 | Tubastatin A 0.027 | [8] 0.009 | defactinib 0.017 | rucaparib -0.002 | [9] 0.008 | encorafenib 0.053 | [10] -0.03

FAM162A (UniProt Q96A26)
inactive: [1] -0.036 | volasertib 0.092 | [2] -0.055 | epoxomicin 0.003 | [3] -0.035 | [4] 0.028 | [5] 0.019 | rosiglitazone 0.014 | [6] -0.074 | [7] 0.018 | saracatinib -0.058 | sotrastaurin 0.057 | alvocidib -0.043 | Tubastatin A 0.107 | [8] 0.02 | defactinib -0.02 | rucaparib -0.077 | [9] -0.05 | encorafenib -0.045 | [10] -0.036

ERGIC3 isoform 3 (UniProt Q9Y282)
inactive: [1] -0.04 | volasertib -0.025 | [2] -0.012 | epoxomicin 0.006 | [3] 0.02 | [4] 0.033 | [5] -0.009 | rosiglitazone 0.012 | [6] -0.012 | [7] -0.14 | saracatinib 0.084 | sotrastaurin 0.027 | alvocidib -0.001 | Tubastatin A -0.039 | [8] -0.039 | defactinib -0.003 | rucaparib -0.027 | [9] -0.02 | encorafenib -0.019 | [10] 0.011

ERGIC1 (UniProt Q969X5)
inactive: [1] 0.005 | volasertib -0.004 | [2] -0.066 | epoxomicin 0.015 | [3] 0.035 | [4] -0.007 | [5] -0.01 | rosiglitazone 0.016 | [6] -0.029 | [7] -0.016 | saracatinib -0.013 | sotrastaurin 0.052 | alvocidib -0.013 | Tubastatin A 0.016 | [8] 0.035 | defactinib -0.017 | rucaparib 0.001 | [9] -0.048 | encorafenib 0 | [10] 0.025

EPM2AIP1 (UniProt Q7L775)
inactive: [1] -0.094 | volasertib -0.141 | [2] 0.008 | epoxomicin 0.009 | [3] 0.017 | [4] -0.013 | [5] 0 | rosiglitazone 0.025 | [6] -0.077 | [7] -0.175 | saracatinib 0.032 | sotrastaurin 0.01 | alvocidib -0.061 | Tubastatin A -0.009 | [8] -0.012 | defactinib -0.025 | rucaparib 0.001 | [9] -0.046 | encorafenib 0.012 | [10] -0.003

FAM136A (UniProt Q96C01)
inactive: [1] 0.042 | volasertib 0.053 | [2] -0.003 | epoxomicin -0.005 | [3] 0.017 | [4] -0.035 | [5] -0.053 | rosiglitazone 0.012 | [6] -0.051 | [7] -0.013 | saracatinib 0.016 | sotrastaurin 0.013 | alvocidib -0.009 | Tubastatin A 0 | [8] -0.019 | defactinib 0.004 | rucaparib -0.049 | [9] -0.016 | encorafenib -0.02 | [10] -0.012
